In PubChem BioAssay AID256 (DTP/NCI, 2004):
The list does not hold the whole screen: its compounds were picked by chemical class. Other doses and runs of a compound may be missing. T/C is the treated group as % of the vehicle group. Some doses have a count of surviving animals in place of a T/C: the source files T/C as zero there, which appears to mark a toxic dose or a test without result, not a measured value. Counts of survivors are from the toxicity check (mostly the fifth day) where no day follows; animals may have died later. Schedules are NCI's codes, taken here to give the interval after Q, in days (D) or hours (H), and the number of doses after X. Where survival is the endpoint, this PubChem deposit counts one and a half times the control or more as active, and values a quarter to a half above the control carry no call in these data; other NCI protocols may use other cut-offs. Some entries were tested several times; the values are given in rising order. Some T/C values carry the count of animals alive at the toxicity check (mostly the fifth day); where neither a count nor a note follows, no animal had died by that day.

Tested on: CD2F1 mice, L1210 leukemia ip, survival T/C
Test: NCI In Vivo Anticancer Drug Screen. Data for tumor model L1210 Leukemia (intraperitoneal) in CD2F1 (CDF1) mice
Conditions: T/C endpoint: mean survival time, higher T/C = longer survival
Summary of the method: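 Each value reflects a quotient of treated over vehicle control outcomes in mice with a transplanted tumor.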

In the case of `OC(CNCCCl)C(O)C(O)C(O)CNCCCl` (stereo unspecified), the T/C (dose: 1.25 mg/kg/injection, schedule: Q03HX016 (ip), vehicle: saline) is reported as 102 % of control, the T/C (dose: 2.5 mg/kg/injection, schedule: Q03HX016 (ip), vehicle: saline) is reported as 113 % of control and the T/C (dose: 3.75 mg/kg/injection, schedule: Q01DX009 (ip), vehicle: saline) is reported as 118 and 133 % of control. For the same compound, the T/C (dose: 5.0 mg/kg/injection, schedule: Q01DX007 (ip), vehicle: other) was 127 % of control, the T/C (dose: 5.0 mg/kg/injection, schedule: Q01DX009 (ip), vehicle: other) was 120 % of control and the T/C (dose: 5.0 mg/kg/injection, schedule: Q03DX003 (ip), vehicle: other) was 113 % of control. For the same compound, the T/C (dose: 5.0 mg/kg/injection, schedule: Q03HX016 (ip), vehicle: saline) was 124 % of control, the T/C (dose: 5.0 mg/kg/injection, schedule: Q04DX003 (ip), vehicle: other) was 117 % of control and the T/C (dose: 7.5 mg/kg/injection, schedule: Q01DX009 (ip), vehicle: saline) was 139 and 156 % of control. For the same compound, the T/C (dose: 10.0 mg/kg/injection, schedule: Q01DX007 (ip), vehicle: other) was 143 % of control, the T/C (dose: 10.0 mg/kg/injection, schedule: Q01DX009 (ip), vehicle: other) was 142 % of control and the T/C (dose: 10.0 mg/kg/injection, schedule: Q03DX003 (ip), vehicle: other) was 132 % of control. For the same compound, the T/C (dose: 10.0 mg/kg/injection, schedule: Q03HX016 (ip), vehicle: saline) was 154 % of control, the T/C (dose: 10.0 mg/kg/injection, schedule: Q04DX003 (ip), vehicle: other) was 133 % of control and the T/C (dose: 10.0 mg/kg/injection, schedule: Q08DX002 (ip), vehicle: saline) was 113 % of control. The T/C (dose: 15.0 mg/kg/injection, schedule: Q01DX009 (ip), vehicle: saline) was 148 and 189 % of control, the T/C (dose: 20.0 mg/kg/injection, schedule: Q01DX007 (ip), vehicle: other) was 162 % of control and the T/C (dose: 20.0 mg/kg/injection, schedule: Q01DX009 (ip), vehicle: other) was 171 % of control. The T/C (dose: 20.0 mg/kg/injection, schedule: Q03DX003 (ip), vehicle: other) was 119 % of control, the T/C (dose: 20.0 mg/kg/injection, schedule: Q03HX016 (ip), vehicle: saline) was 137 % of control and the T/C (dose: 20.0 mg/kg/injection, schedule: Q04DX003 (ip), vehicle: other) was 151 % of control. The T/C (dose: 20.0 mg/kg/injection, schedule: Q08DX002 (ip), vehicle: saline) was 126 % of control, the T/C (dose: 30.0 mg/kg/injection, schedule: Q01DX009 (ip), vehicle: saline) was 136 and 184 % of control and the T/C (dose: 40.0 mg/kg/injection, schedule: Q08DX002 (ip), vehicle: saline) was 151 % of control. For the same compound, the T/C (dose: 80.0 mg/kg/injection, schedule: Q08DX002 (ip), vehicle: saline) was 171 % of control and the T/C (dose: 160.0 mg/kg/injection, schedule: Q08DX002 (ip), vehicle: saline) was 129 % of control [7 of 10 alive].
In the case of `CCN(CC)CCOC(=O)C(O)(c1ccccc1)c1cc(C)c(C)c(C)c1C` (stereo unspecified), the T/C (dose: 75.0 mg/kg/injection, schedule: Q01DX001 (ip), vehicle: other) is reported as 100 % of control.
`CNNCCCl` was tested, and the T/C (dose: 3.12 mg/kg/injection, schedule: Q01DX001 (ip), vehicle: saline) was 103 % of control, the T/C (dose: 3.12 mg/kg/injection, schedule: Q04DX003 (ip), vehicle: saline) was 103 % of control and the T/C (dose: 6.25 mg/kg/injection, schedule: Q01DX001 (ip), vehicle: saline) was 110 % of control. For the same compound, the T/C (dose: 6.25 mg/kg/injection, schedule: Q04DX003 (ip), vehicle: saline) was 115 % of control, the T/C (dose: 12.5 mg/kg/injection, schedule: Q01DX001 (ip), vehicle: saline) was 109 % of control and the T/C (dose: 12.5 mg/kg/injection, schedule: Q04DX003 (ip), vehicle: saline) was 115 % of control. For the same compound, the T/C (dose: 25.0 mg/kg/injection, schedule: Q01DX001 (ip), vehicle: saline) was 113 [4 of 6 alive] and 116 % of control [5 of 6 alive], the T/C (dose: 25.0 mg/kg/injection, schedule: Q04DX003 (ip), vehicle: saline) was 90 [5 of 6 alive] and 103 % of control and the survivor count (dose: 50.0 mg/kg/injection, schedule: Q01DX001 (ip), vehicle: saline) was 0 of 6. The survivor count (dose: 50.0 mg/kg/injection, schedule: Q04DX003 (ip), vehicle: saline) was 1 of 6, the survivor count (dose: 100.0 mg/kg/injection, schedule: Q01DX001 (ip), vehicle: saline) was 0 of 6 and the survivor count (dose: 100.0 mg/kg/injection, schedule: Q04DX003 (ip), vehicle: saline) was 0 of 6. For the same compound, the survivor count (dose: 200.0 mg/kg/injection, schedule: Q01DX001 (ip), vehicle: saline) was 0 of 6 and the survivor count (dose: 200.0 mg/kg/injection, schedule: Q04DX003 (ip), vehicle: saline) was 0 of 6.
